# Reference: the supplement of paper PMC8728848
# The list shows a part of the results.
# B1: CD34 (Homo sapiens), P28906 (protein)
# chain: MGSSHHHHHHSSGLVPRGSHMSTSLATSPTKPYTSSSPILSDIKAEIKCSGIREVKLTQGICLEQNKTSSCAEFKKDRGEGLARVLCGEEQADADAGAQVCSLLLAQSEVRPQCLLLVLANRTEISSKLQLMKKHQSDLKKLGILDFTEQDVASHQSYSQKT
# Experiments:
# Test in all cases: glycan array binding signal (z-score within array); higher = stronger binding
# Details in all cases: glycan notation: IUPAC condensed, linker removed
# [1] = target: Gal(a1-3)Gal(b1-4)GlcNAc
# Outline: (§1)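 The Consortium for Functional Glycomics database supplied 3228 glycan arrays, of which those lacking an available protein sequence were dropped. The binding signal, a within-array Z-score, was averaged across arrays of the same protein sequence and across linkers. Negative scores can be read as non-binding.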
# [2] = target: Gal(a1-3)Gal(b1-4)GlcNAc(b1-2)Man
# Outline: as §1
# [3] = target: Gal(a1-3)Gal(b1-4)GlcNAc(b1-2)Man(a1-3)[Gal(a1-3)Gal(b1-4)GlcNAc(b1-2)Man(a1-6)]Man(b1-4)GlcNAc(b1-4)GlcNAc
# Outline: as §1
# [4] = target: Gal(a1-3)Gal(b1-4)GlcNAc(b1-3)GalNAc
# Outline: as §1
# [5] = target: Gal(a1-3)Gal(b1-4)GlcNAc(b1-6)GalNAc
# Outline: as §1
# [6] = target: Gal(a1-3)Gal(b1-4)[Fuc(a1-3)]GlcNAc
# Outline: as §1
# [7] = target: Gal(a1-3)Gal(b1-4)[Fuc(a1-3)]GlcNAc(b1-2)Man(a1-3)[Gal(a1-3)Gal(b1-4)[Fuc(a1-3)]GlcNAc(b1-2)Man(a1-6)]Man(b1-4)GlcNAc(b1-4)GlcNAc
# Outline: as §1
# [8] = target: Gal(a1-3)GalNAc
# Outline: as §1
# [9] = target: Gal(a1-3)[Gal(a1-4)]Gal(b1-4)GlcNAc
# Outline: as §1
# [10] = target: Gal(a1-4)Gal(b1-3)GlcNAc(b1-2)Man(a1-3)[Gal(a1-4)Gal(b1-3)GlcNAc(b1-2)Man(a1-6)]Man(b1-4)GlcNAc(b1-4)GlcNAc
# Outline: as §1
# [11] = target: Gal(a1-4)Gal(b1-4)Glc
# Outline: as §1
# [12] = target: Gal(a1-4)Gal(b1-4)GlcNAc
# Outline: as §1
# [13] = target: Gal(a1-4)Gal(b1-4)GlcNAc(b1-2)Man(a1-3)[Gal(a1-4)Gal(b1-4)GlcNAc(b1-2)Man(a1-6)]Man(b1-4)GlcNAc(b1-4)GlcNAc
# Outline: as §1
# [14] = target: Gal(a1-4)Gal(b1-4)GlcNAc(b1-3)Gal(b1-4)Glc
# Outline: as §1
# [15] = target: Gal(a1-4)GlcNAc
# Outline: as §1
# [16] = target: Gal(a1-6)Glc
# Outline: as §1
# [17] = target: Gal(b1-2)Gal
# Outline: as §1
# [18] = target: Gal(b1-3)Gal
# Outline: as §1
# [19] = target: Gal(b1-3)Gal(b1-4)GlcNAc
# Outline: as §1
# [20] = target: Gal(b1-3)GalNAc
# Outline: as §1
# [21] = target: Gal(b1-3)GalNAc(a1-3)[Fuc(a1-2)]Gal(b1-4)Glc
# Outline: as §1
# [22] = target: Gal(b1-3)GalNAc(a1-3)[Fuc(a1-2)]Gal(b1-4)GlcNAc
# Outline: as §1
# [23] = target: Gal(b1-3)GalNAc(b1-3)Gal
# Outline: as §1
# [24] = target: Gal(b1-3)GalNAc(b1-3)Gal(a1-4)Gal(b1-4)Glc
# Outline: as §1
# [25] = target: Gal(b1-3)GalNAc(b1-4)Gal(b1-4)Glc
# Outline: as §1
# [26] = target: Gal(b1-3)GalNAc(b1-4)[Neu5Ac(a2-3)]Gal(b1-4)Glc
# Outline: as §1
# [27] = target: Gal(b1-3)GlcNAc
# Outline: as §1
# [28] = target: Gal(b1-3)GlcNAc(a1-3)Gal(b1-4)GlcNAc
# Outline: as §1
# [29] = target: Gal(b1-3)GlcNAc(a1-6)Gal(b1-4)GlcNAc
# Outline: as §1
# [30] = target: Gal(b1-3)GlcNAc(b1-2)Man
# Outline: as §1
# [31] = target: Gal(b1-3)GlcNAc(b1-2)Man(a1-3)[Gal(b1-3)GlcNAc(b1-2)Man(a1-6)]Man(b1-4)GlcNAc(b1-4)GlcNAc
# Outline: as §1
# [32] = target: Gal(b1-3)GlcNAc(b1-2)Man(a1-3)[Gal(b1-3)GlcNAc(b1-2)Man(a1-6)]Man(b1-4)GlcNAc(b1-4)[Fuc(a1-6)]GlcNAc
# Outline: as §1
# [33] = target: Gal(b1-3)GlcNAc(b1-2)Man(a1-3)[GlcNAc(b1-4)][Gal(b1-3)GlcNAc(b1-2)Man(a1-6)]Man(b1-4)GlcNAc(b1-4)GlcNAc
# Outline: as §1
# [34] = target: Gal(b1-3)GlcNAc(b1-2)[Gal(b1-3)GlcNAc(b1-6)]Man(a1-6)[Gal(b1-3)GlcNAc(b1-2)Man(a1-3)]Man(b1-4)GlcNAc(b1-4)GlcNAc
# Outline: as §1
# [35] = target: Gal(b1-3)GlcNAc(b1-3)Gal(b1-3)GlcNAc
# Outline: as §1
# [36] = target: Gal(b1-3)GlcNAc(b1-3)Gal(b1-4)Glc
# Outline: as §1
# [37] = target: Gal(b1-3)GlcNAc(b1-3)Gal(b1-4)GlcNAc
# Outline: as §1
# [38] = target: Gal(b1-3)GlcNAc(b1-3)Gal(b1-4)GlcNAc(b1-2)Man(a1-3)[Gal(b1-3)GlcNAc(b1-3)Gal(b1-4)GlcNAc(b1-2)Man(a1-6)]Man(b1-4)GlcNAc(b1-4)GlcNAc
# Outline: as §1
# [39] = target: Gal(b1-3)GlcNAc(b1-3)Gal(b1-4)GlcNAc(b1-2)[Gal(b1-3)GlcNAc(b1-3)Gal(b1-4)GlcNAc(b1-6)]Man(a1-6)[Gal(b1-3)GlcNAc(b1-3)Gal(b1-4)GlcNAc(b1-2)Man(a1-3)]Man(b1-4)GlcNAc(b1-4)[Fuc(a1-6)]GlcNAc
# Outline: as §1
# [40] = target: Gal(b1-3)GlcNAc(b1-3)Gal(b1-4)GlcNAc(b1-3)Gal(b1-4)GlcNAc(b1-2)[Gal(b1-3)GlcNAc(b1-3)Gal(b1-4)GlcNAc(b1-3)Gal(b1-4)GlcNAc(b1-6)]Man(a1-6)[Gal(b1-3)GlcNAc(b1-3)Gal(b1-4)GlcNAc(b1-3)Gal(b1-4)GlcNAc(b1-2)Man(a1-3)]Man(b1-4)GlcNAc(b1-4)[Fuc(a1-6)]GlcNAc
# Outline: as §1
# [41] = target: Gal(b1-3)GlcNAc(b1-3)Gal(b1-4)GlcNAc(b1-6)[Gal(b1-3)GlcNAc(b1-3)]Gal(b1-4)Glc
# Outline: as §1
# [42] = target: Gal(b1-3)GlcNAc(b1-3)Gal(b1-4)[Fuc(a1-3)]GlcNAc
# Outline: as §1
# [43] = target: Gal(b1-3)GlcNAc(b1-3)Gal(b1-4)[Fuc(a1-3)]GlcNAc(b1-6)[Gal(b1-3)GlcNAc(b1-3)]Gal(b1-4)Glc
# Outline: as §1
# [44] = target: Gal(b1-3)GlcNAc(b1-3)GalNAc
# Outline: as §1
# [45] = target: Gal(b1-3)GlcNAc(b1-6)Gal(b1-4)GlcNAc
# Outline: as §1
binder,measurement,setting,value
B1,glycan array binding signal (z-score),[1],-0.308
same,glycan array binding signal (z-score),[2],-1.01
same,glycan array binding signal (z-score),[3],-0.096
same,glycan array binding signal (z-score),[4],-0.341
same,glycan array binding signal (z-score),[5],-0.095
same,glycan array binding signal (z-score),[6],-0.613
same,glycan array binding signal (z-score),[7],0.796
same,glycan array binding signal (z-score),[8],-0.408
same,glycan array binding signal (z-score),[9],0.595
same,glycan array binding signal (z-score),[10],-0.544
same,glycan array binding signal (z-score),[11],-0.414
same,glycan array binding signal (z-score),[12],-0.781
same,glycan array binding signal (z-score),[13],0.07
same,glycan array binding signal (z-score),[14],-0.647
same,glycan array binding signal (z-score),[15],-0.469
same,glycan array binding signal (z-score),[16],-0.517
same,glycan array binding signal (z-score),[17],-0.471
same,glycan array binding signal (z-score),[18],0.494
same,glycan array binding signal (z-score),[19],-0.649
same,glycan array binding signal (z-score),[20],-0.417
same,glycan array binding signal (z-score),[21],0.602
same,glycan array binding signal (z-score),[22],-0.912
same,glycan array binding signal (z-score),[23],-0.13
same,glycan array binding signal (z-score),[24],0.138
same,glycan array binding signal (z-score),[25],0.08
same,glycan array binding signal (z-score),[26],-0.075
same,glycan array binding signal (z-score),[27],-0.133
same,glycan array binding signal (z-score),[28],0.324
same,glycan array binding signal (z-score),[29],-0.222
same,glycan array binding signal (z-score),[30],0.666
same,glycan array binding signal (z-score),[31],1.38
same,glycan array binding signal (z-score),[32],0.315
same,glycan array binding signal (z-score),[33],0.118
same,glycan array binding signal (z-score),[34],0.384
same,glycan array binding signal (z-score),[35],-0.917
same,glycan array binding signal (z-score),[36],-0.144
same,glycan array binding signal (z-score),[37],-0.549
same,glycan array binding signal (z-score),[38],-0.544
same,glycan array binding signal (z-score),[39],0.913
same,glycan array binding signal (z-score),[40],-0.213
same,glycan array binding signal (z-score),[41],-0.461
same,glycan array binding signal (z-score),[42],0.169
same,glycan array binding signal (z-score),[43],-0.812
same,glycan array binding signal (z-score),[44],-0.777
same,glycan array binding signal (z-score),[45],-0.686

# An excerpt taken from the entries so far:
binder,measurement,setting,value
B1,glycan array binding signal (z-score),[21],0.602
same,glycan array binding signal (z-score),[22],-0.912
same,glycan array binding signal (z-score),[23],-0.13
same,glycan array binding signal (z-score),[24],0.138
